Reference: publication PMC10778189
Results are given in words; binding and its absence hold for the method and conditions named. Some binding calls cover weakened binding; strength is not graded here.

The chains behind the UniProt entries cited, without tags or fusion partners. Residues count along the entry.
UniProt P62812, residues 28-455: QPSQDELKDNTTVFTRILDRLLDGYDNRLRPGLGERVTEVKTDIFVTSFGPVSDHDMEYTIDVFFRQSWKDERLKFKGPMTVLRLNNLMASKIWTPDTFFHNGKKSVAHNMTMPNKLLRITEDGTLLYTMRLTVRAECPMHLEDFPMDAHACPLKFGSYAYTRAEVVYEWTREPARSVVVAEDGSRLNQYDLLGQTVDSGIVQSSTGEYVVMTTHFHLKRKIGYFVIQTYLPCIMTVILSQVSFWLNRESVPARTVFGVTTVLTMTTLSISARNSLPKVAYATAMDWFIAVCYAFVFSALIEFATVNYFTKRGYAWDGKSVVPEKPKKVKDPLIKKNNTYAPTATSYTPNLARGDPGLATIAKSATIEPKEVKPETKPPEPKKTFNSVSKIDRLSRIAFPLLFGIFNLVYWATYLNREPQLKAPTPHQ
UniProt P63137, residues 26-512: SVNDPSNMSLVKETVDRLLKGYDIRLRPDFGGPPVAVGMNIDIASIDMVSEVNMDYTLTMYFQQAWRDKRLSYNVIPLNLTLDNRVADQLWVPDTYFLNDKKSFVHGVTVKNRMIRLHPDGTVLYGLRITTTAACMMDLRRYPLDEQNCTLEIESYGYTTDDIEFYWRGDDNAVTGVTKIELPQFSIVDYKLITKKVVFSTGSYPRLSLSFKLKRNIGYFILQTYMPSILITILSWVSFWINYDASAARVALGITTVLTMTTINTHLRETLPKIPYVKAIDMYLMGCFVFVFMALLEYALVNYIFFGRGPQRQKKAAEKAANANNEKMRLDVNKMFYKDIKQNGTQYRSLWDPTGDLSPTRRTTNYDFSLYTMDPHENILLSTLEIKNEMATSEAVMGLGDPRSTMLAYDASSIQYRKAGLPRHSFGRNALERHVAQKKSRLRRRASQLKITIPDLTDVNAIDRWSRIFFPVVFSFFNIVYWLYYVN
UniProt Q69ZK9, residues 15-836: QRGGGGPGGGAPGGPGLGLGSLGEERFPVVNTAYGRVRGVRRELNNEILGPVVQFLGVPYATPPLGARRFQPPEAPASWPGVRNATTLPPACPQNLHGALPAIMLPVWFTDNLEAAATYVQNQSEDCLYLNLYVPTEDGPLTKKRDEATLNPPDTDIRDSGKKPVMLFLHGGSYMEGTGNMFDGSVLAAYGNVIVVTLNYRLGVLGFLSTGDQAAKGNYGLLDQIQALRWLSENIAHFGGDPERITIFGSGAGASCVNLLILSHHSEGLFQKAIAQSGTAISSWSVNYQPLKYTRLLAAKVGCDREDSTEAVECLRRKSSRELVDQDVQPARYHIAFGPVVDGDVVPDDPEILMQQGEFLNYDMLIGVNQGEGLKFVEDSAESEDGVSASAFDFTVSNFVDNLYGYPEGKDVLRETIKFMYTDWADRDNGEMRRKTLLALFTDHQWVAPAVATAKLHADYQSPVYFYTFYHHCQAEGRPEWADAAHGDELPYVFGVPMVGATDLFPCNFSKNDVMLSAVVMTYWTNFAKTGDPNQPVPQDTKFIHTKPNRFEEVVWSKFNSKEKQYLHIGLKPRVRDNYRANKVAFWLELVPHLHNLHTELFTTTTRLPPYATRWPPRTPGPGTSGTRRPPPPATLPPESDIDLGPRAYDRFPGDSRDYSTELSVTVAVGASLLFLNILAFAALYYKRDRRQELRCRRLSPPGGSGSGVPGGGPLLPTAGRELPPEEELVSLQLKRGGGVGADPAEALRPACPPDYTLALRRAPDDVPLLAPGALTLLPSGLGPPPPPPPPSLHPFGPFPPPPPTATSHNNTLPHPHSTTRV

Assays:
[1] = biological target: GABAA receptor α1 subunit (Gabra1) (mouse (endogenous in hippocampus and olfactory bulb)) (UniProt P62812); test: native gel or EMSA; BN-PAGE of native hippocampal and olfactory bulb lysates, transferred to PVDF and immuno-stained for α1, β2/3 and Nlgn2; bands at 680 kDa and 450 kDa
[2] = biological target: T1, GABAA receptor α5 subunit (Gabra5) (mouse (endogenous in hippocampus and olfactory bulb)) (UniProt Q8BHJ7); test: native gel or EMSA; BN-PAGE (NativePAGE 4-16% Bis-Tris, 4 °C) of 1% MNG extracts of mouse hippocampus and olfactory bulb; each lane cut into 50 pieces and read by mass spectrometry; co-migration of abundance profiles
T1 sequence: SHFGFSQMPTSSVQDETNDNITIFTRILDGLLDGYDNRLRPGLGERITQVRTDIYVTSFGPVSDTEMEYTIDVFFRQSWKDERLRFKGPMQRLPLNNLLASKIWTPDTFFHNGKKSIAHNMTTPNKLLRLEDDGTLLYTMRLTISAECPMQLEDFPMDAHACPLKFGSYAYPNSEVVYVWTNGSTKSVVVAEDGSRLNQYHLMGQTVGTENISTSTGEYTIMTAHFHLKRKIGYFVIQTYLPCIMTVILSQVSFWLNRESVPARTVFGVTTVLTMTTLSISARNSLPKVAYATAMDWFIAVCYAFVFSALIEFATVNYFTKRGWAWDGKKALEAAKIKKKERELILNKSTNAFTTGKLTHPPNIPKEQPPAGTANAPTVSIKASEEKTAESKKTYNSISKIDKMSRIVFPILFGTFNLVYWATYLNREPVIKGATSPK

[3] = biological target: GABAA receptor β2 subunit (mouse (endogenous in hippocampus and olfactory bulb)) (UniProt P63137); test: as above
[4] = biological target: T2, GABAA receptor γ2 subunit (mouse (endogenous in hippocampus and olfactory bulb)) (UniProt P22723); test: as above
T2 sequence: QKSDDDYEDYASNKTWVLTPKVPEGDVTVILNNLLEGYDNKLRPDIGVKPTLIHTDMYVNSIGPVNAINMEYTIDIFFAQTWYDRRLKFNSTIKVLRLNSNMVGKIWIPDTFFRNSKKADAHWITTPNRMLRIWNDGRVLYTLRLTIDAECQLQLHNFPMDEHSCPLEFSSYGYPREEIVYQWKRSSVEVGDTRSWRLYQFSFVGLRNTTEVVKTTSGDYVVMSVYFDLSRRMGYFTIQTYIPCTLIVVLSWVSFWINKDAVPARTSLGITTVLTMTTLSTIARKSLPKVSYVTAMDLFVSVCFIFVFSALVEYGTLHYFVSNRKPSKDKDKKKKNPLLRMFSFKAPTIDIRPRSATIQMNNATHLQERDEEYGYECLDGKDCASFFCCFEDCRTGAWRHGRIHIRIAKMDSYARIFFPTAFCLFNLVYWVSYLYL

Measured: binding

Neuroligin 2 (Nlgn2) (from UniProt Q69ZK9 15-836)
binds: all assays above
